Experimental data: PMC3567142
These are yes or no findings as the source states them, for the method shown. Binding seen in cells or lysates may run through a third protein. Some entries that bind do so weakly or less than the wild type. Sequences can lack the tags named with a protein. Blank lines part the entries; values can stand above or below the molecule they belong to.

Protein sequences, listed by entry. Tags and fused reporters are not part of them.
UniProt P35201: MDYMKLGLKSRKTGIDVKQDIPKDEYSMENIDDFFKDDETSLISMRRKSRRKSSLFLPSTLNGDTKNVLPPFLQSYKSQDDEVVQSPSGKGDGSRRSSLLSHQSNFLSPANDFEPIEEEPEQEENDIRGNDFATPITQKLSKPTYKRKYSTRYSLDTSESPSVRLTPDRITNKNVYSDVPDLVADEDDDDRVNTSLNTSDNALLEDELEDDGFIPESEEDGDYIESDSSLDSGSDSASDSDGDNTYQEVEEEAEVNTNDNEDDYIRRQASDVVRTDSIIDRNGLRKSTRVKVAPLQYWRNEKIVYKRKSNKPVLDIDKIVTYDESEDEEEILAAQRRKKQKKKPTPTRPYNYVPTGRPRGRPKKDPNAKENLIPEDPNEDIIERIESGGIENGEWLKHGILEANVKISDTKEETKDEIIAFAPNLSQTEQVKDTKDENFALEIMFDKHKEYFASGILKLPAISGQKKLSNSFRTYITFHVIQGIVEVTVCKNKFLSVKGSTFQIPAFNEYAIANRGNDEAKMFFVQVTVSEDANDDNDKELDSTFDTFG

How the values were obtained:
[1] = molecular target: T1, Mub1-Flag (budding yeast) (UniProt Q03162); assay: co-IP; anti-Flag immunoprecipitation from budding yeast lysate in BH/0.15; immunoblot (anti-Myc, anti-Mif2); Mif2-Flag with Mub1-Myc in the presence or absence of UBR2
T1 sequence: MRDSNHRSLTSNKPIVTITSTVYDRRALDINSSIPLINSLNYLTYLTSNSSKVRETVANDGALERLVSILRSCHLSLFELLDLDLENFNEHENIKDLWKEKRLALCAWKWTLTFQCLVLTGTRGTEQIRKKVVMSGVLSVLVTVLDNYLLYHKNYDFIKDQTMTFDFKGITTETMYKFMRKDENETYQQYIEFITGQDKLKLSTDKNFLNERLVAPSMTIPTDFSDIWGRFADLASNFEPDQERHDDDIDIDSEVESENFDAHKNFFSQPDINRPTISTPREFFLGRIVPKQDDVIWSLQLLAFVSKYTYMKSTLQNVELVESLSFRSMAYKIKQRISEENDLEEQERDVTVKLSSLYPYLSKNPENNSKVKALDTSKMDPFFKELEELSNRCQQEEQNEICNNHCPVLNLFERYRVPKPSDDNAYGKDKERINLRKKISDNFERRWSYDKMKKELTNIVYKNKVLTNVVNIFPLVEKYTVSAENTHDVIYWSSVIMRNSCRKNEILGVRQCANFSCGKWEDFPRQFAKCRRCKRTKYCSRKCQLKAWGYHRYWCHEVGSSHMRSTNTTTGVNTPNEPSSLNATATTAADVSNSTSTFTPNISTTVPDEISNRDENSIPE

[2] = molecular target: CENP-C^Mif2-Flag (budding yeast) (UniProt P35201); assay: as above

- binding [1]: binds
Molecule: CENP-C^Mif2 (from UniProt P35201 1-549)

- binding [2]: binds
B1: Mub1-Myc (protein, UniProt Q03162 1-620)
chain: T1 sequence
